Assay results: the supplement of paper PMC10849652
Some of the results follow.

Protein sequences, listed by entry. Tags and fused reporters are not part of them. Lines headed by an entry give the natural chain unless they say otherwise; changes in a name come on top.
UniProt Q96I76: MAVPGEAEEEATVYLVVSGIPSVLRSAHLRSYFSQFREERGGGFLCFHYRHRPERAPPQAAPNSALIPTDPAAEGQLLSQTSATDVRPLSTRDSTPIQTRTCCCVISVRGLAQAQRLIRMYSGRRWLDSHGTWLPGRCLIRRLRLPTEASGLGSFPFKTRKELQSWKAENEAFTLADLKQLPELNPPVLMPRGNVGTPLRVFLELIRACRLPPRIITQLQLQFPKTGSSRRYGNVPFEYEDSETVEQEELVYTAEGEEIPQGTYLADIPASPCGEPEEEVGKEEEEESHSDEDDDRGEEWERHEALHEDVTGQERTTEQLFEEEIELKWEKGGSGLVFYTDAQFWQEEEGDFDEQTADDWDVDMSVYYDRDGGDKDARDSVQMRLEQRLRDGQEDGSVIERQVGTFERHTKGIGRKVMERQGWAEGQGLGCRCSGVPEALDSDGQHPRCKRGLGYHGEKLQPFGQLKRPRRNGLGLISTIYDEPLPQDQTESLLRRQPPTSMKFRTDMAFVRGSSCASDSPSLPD
UniProt Q9UBI6: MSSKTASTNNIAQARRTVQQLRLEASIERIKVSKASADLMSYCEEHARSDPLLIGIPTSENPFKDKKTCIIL
UniProt P06280: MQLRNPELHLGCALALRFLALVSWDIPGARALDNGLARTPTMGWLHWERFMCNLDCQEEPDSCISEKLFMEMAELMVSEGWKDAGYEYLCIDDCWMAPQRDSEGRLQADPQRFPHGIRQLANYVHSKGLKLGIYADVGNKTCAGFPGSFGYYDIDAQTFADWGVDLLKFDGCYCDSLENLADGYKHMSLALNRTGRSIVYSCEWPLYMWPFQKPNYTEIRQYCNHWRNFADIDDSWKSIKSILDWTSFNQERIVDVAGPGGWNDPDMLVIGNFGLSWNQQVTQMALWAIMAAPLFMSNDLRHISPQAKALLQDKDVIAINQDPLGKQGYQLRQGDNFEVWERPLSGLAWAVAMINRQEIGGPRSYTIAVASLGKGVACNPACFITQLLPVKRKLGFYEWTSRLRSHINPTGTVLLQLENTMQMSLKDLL
UniProt Q8N2G8: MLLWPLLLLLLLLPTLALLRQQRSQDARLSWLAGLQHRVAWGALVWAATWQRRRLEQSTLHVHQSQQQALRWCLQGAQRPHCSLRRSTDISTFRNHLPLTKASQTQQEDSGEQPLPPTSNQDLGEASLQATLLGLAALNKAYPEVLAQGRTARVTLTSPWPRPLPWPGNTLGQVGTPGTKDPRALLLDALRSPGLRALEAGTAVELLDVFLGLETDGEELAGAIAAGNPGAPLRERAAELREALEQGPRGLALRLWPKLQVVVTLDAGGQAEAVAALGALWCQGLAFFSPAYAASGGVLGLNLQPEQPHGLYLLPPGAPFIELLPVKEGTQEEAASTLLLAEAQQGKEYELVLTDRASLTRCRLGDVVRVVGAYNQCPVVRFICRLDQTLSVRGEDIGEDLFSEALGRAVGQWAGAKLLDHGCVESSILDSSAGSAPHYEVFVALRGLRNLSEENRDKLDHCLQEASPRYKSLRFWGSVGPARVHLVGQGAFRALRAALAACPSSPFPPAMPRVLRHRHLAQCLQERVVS
UniProt Q9P2T1: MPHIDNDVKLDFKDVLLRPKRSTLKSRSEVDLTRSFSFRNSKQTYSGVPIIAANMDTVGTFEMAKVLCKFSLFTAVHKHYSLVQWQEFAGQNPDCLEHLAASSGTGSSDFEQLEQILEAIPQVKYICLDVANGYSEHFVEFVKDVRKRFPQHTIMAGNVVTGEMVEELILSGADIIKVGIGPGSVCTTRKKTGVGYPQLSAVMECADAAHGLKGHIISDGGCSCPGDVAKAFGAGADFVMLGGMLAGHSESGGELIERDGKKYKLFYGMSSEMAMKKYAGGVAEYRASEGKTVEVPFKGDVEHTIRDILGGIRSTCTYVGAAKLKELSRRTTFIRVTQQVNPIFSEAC
UniProt Q9BXV9: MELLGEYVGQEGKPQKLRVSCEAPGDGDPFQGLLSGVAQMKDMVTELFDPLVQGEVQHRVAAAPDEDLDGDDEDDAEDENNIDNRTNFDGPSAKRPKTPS
UniProt Q8IXQ4: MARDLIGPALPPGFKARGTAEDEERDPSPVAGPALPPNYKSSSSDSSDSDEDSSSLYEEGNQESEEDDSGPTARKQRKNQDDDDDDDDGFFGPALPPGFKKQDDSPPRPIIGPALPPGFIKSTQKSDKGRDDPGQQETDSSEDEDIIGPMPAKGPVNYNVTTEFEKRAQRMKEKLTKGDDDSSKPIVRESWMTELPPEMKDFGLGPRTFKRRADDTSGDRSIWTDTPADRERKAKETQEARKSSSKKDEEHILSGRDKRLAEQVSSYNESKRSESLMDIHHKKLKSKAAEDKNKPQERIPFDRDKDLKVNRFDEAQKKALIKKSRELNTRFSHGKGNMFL
UniProt Q8TF64: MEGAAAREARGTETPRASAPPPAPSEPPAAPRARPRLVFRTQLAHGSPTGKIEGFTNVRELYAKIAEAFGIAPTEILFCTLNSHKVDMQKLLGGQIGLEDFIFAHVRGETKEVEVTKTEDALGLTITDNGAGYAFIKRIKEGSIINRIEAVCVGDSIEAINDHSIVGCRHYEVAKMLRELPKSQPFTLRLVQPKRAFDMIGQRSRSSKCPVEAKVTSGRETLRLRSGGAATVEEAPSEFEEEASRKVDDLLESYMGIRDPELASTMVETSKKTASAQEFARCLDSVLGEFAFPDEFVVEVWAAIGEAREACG
UniProt Q9H9Y4: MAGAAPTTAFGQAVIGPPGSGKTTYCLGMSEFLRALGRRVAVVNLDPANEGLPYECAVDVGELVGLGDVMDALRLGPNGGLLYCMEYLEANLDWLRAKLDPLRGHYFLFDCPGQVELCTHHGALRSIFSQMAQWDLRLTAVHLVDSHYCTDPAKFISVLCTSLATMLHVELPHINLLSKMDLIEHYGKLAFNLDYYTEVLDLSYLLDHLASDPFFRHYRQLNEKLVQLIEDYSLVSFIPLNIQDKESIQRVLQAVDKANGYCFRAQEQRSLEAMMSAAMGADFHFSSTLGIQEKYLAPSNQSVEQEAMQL
UniProt P32189: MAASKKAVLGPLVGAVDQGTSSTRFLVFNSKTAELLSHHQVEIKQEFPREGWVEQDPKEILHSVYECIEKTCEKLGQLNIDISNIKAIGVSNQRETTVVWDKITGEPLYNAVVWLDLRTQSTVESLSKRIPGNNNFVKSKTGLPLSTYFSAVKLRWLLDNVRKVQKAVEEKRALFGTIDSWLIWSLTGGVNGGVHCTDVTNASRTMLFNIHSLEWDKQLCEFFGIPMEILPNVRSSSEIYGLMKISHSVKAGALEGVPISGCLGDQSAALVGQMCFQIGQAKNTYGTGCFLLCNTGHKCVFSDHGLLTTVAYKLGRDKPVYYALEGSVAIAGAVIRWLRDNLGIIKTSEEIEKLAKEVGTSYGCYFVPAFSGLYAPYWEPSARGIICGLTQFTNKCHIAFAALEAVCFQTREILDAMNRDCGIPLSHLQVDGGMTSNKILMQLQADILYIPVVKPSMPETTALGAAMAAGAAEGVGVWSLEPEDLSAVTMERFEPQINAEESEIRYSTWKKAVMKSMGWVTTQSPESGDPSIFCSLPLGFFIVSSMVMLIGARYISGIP
UniProt Q8TBA6: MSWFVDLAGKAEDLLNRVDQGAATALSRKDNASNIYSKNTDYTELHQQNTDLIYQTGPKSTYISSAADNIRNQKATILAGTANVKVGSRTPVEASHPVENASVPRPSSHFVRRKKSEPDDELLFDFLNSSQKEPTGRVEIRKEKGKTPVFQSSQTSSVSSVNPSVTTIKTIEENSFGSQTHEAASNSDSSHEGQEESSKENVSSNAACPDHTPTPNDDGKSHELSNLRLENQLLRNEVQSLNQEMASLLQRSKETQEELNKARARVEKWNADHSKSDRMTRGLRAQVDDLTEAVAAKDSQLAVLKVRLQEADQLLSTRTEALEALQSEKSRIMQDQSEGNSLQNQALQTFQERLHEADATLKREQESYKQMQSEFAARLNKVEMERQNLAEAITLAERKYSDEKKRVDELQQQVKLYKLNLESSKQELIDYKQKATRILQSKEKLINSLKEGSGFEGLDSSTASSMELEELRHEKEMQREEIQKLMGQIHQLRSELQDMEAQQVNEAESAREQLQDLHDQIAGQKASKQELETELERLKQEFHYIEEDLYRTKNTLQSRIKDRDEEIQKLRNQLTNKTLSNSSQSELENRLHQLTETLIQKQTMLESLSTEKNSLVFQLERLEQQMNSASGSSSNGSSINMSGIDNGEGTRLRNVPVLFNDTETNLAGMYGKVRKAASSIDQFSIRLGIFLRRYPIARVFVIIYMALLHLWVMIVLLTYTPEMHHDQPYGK
UniProt Q3T906: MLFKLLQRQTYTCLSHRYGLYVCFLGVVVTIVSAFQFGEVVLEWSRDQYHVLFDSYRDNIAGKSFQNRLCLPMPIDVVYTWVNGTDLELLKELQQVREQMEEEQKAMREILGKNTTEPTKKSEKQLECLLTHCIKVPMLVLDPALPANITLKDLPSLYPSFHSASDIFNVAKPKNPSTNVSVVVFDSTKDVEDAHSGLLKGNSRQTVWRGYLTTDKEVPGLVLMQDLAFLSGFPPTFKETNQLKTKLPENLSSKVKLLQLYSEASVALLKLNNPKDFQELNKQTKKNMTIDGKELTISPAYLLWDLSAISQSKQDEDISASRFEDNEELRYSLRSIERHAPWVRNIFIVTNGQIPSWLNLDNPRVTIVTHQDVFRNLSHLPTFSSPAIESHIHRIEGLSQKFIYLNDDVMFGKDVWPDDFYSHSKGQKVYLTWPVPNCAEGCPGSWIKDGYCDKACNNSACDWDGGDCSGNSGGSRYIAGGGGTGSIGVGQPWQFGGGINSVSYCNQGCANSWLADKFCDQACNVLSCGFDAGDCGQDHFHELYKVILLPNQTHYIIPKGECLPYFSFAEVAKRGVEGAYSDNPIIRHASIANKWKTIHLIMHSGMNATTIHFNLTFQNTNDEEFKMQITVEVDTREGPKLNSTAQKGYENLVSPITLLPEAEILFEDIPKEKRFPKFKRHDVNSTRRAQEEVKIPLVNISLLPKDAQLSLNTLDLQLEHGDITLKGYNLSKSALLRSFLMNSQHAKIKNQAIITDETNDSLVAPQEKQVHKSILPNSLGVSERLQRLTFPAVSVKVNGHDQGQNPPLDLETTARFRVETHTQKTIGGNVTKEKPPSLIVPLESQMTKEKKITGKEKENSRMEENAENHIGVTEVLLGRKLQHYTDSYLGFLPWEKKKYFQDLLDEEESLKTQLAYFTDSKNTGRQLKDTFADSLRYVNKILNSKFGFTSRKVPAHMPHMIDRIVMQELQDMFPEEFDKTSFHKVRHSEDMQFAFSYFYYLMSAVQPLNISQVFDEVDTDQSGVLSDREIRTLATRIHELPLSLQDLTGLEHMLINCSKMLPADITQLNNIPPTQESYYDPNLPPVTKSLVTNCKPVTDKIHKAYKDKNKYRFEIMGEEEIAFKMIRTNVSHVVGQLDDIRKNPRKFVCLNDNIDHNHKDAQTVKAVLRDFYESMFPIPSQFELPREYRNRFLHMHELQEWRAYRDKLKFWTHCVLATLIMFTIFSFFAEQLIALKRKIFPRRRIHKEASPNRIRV
UniProt Q9NU53: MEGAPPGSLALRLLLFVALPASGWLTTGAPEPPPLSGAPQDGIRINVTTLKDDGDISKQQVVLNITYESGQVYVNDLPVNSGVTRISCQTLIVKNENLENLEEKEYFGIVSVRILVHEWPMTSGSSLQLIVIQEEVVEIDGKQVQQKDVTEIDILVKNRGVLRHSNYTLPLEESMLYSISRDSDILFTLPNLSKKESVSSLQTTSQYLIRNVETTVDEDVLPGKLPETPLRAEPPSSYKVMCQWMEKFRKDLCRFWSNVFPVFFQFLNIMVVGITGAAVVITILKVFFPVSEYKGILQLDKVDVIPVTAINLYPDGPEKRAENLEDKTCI
UniProt Q9NWQ4: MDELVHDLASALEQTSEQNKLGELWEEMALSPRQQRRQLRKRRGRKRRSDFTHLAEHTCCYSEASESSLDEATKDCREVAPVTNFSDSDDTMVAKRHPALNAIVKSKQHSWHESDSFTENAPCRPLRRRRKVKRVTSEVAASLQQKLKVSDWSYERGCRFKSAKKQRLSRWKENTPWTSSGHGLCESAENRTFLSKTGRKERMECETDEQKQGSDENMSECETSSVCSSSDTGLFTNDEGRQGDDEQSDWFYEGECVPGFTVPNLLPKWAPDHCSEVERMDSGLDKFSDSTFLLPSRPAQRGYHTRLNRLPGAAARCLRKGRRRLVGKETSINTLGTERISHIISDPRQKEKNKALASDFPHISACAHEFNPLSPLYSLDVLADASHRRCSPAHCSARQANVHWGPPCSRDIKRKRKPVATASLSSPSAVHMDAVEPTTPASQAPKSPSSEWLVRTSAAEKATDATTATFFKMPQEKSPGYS
UniProt Q14691: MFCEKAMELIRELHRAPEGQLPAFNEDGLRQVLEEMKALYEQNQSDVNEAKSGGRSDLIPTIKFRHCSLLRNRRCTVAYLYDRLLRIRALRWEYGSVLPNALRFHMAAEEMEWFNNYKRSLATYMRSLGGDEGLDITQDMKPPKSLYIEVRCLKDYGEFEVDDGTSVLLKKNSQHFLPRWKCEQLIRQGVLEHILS

Experiments:
Assay in all cases: log2 fold change, soluble protein after heating vs DMSO (PISA); higher = thermal stabilisation; K562 lysate, 10 uM; active = over 0.2 and 3.5 SD of the protein, either way, in both replicates (recomputed)
[1] = compound: C1=CC=C(C=C1)[C@H](COC2=CC3=C(C=C2)NC(=O)N3)NC(=O)C4=CC=CN(C4=O)CC5=CC(=C(C=C5)F)F
Summary of the method: (§1)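 Quantification was by TMTpro 16plex LC-MS/MS with equalised channel sums, applied to the supernatant after 21,000xg for 90 min. Samples were crude K562 extract at 1 mg/mL protein in PBS pH 7.4 with 1 mM MgCl2, treated with 10 μM compound for 30 min, heated for 3 min across 48°C-58°C, pooled and brought to 0.5% NP-40 at 4°C. Values are log-two fold changes in thermal stability relative to solvent controls, from duplicates.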

[2] = compound: CC1=C(SC2=C1C(=N[C@H](C3=NN=C(N32)C)CC(=O)N)C4=CC=C(C=C4)Cl)C
Summary of the method: as §1

[3] = compound: Cc1sc2c(c1C)C(c1ccc(Cl)cc1)=N[C@@H](CC(=O)OC(C)(C)C)c1nnc(C)n1-2
Summary of the method: as §1

[4] = compound: c1ccc([C@@H]2C[C@H]2NC2CCNCC2)cc1
Summary of the method: as §1

[5] = compound: CC1=C2C(=CC=C1)N=C(N(C2=O)C3=CC=CC=C3C)CN4C=NC5=C(N=CN=C54)N
Summary of the method: as §1

Measured: log2 fold change

GLCE (UniProt O94923)
inactive: [1] -0.176 | [2] -0.012 | [3] -0.063 | [4] 0.105

GLRX (UniProt P35754)
inactive: [5] -0.026

GPATCH3 (UniProt Q96I76)
inactive: [4] 0.018

GOSR1 (UniProt E9PCW1)
inactive: [1] -0.278 | [2] 0.153 | [3] -0.087 | [4] 0.164

GNG12 (UniProt Q9UBI6)
inactive: [5] 0 | [4] 0.001

GOLGA1 (UniProt Q92805)
inactive: [1] -0.042 | [2] 0.045 | [5] 0.026 | [3] -0.057 | [4] 0.009

GLA (UniProt P06280)
inactive: [1] 0.03 | [2] 0.024 | [5] -0.031 | [3] -0.021 | [4] 0.06

GLE1 (UniProt Q53GS7)
inactive: [1] -0.124 | [2] -0.161 | [5] 0.003 | [3] -0.007 | [4] 0.086

GORASP1 (UniProt Q9BQQ3)
inactive: [5] -0.049 | [3] -0.031 | [4] 0.042

GLMP (UniProt Q8WWB7)
inactive: [5] -0.027 | [3] 0.187

GNAI1 (UniProt P63096)
inactive: [4] -0.109

GOLGB1 isoform 4 (UniProt Q14789)
inactive: [3] -0.126

GHDC (UniProt Q8N2G8)
inactive: [1] 0.026 | [2] 0.015 | [5] 0.063 | [3] -0.079 | [4] 0.016

GMPR2 isoform 2 (UniProt Q9P2T1)
inactive: [1] -0.022 | [2] -0.013 | [5] 0.007 | [3] 0.019 | [4] -0.022

GON7 (UniProt Q9BXV9)
inactive: [1] -0.003 | [2] -0.065 | [5] 0.001 | [3] -0.015 | [4] 0.029

GOLGA4 isoform 5 (UniProt Q13439)
inactive: [1] 0.01 | [2] 0.015 | [5] 0.005 | [3] -0.002 | [4] -0.087

GPALPP1 (UniProt Q8IXQ4)
inactive: [1] -0.018 | [2] 0.021 | [5] -0.038 | [3] -0.021 | [4] -0.027

GMEB2 (UniProt Q9UKD1)
inactive: [1] 0.011 | [2] 0.019 | [5] -0.092 | [3] -0.045 | [4] -0.023

GPSM1 (UniProt Q86YR5)
inactive: [5] -0.155

GIPC3 (UniProt Q8TF64)
inactive: [1] -0.002 | [2] 0.042 | [3] 0.013 | [4] -0.075

GPN2 (UniProt Q9H9Y4)
inactive: [5] 0.07 | [3] 0.057 | [4] -0.034

GK (UniProt P32189)
inactive: [1] 0.022 | [2] 0.021 | [5] 0.014 | [3] -0.007 | [4] -0.051

GPATCH8 (UniProt Q9UKJ3)
inactive: [1] -0.016 | [2] 0.001 | [5] 0.078 | [3] 0.077 | [4] -0.019

GNPNAT1 (UniProt Q96EK6)
inactive: [1] 0.022 | [2] -0.039 | [5] -0.046 | [3] -0.029 | [4] -0.265

GPRC5C isoform 2 (UniProt Q9NQ84)
inactive: [4] 0.04

GOLGA5 (UniProt Q8TBA6)
inactive: [1] 0.03 | [2] -0.011 | [5] 0.013 | [3] -0.03 | [4] -0.038

GNPTAB (UniProt Q3T906)
inactive: [1] -0.001 | [2] 0.17 | [3] 0.039 | [4] -0.055

GINM1 (UniProt Q9NU53)
inactive: [4] -0.497

GNB2 (UniProt P62879)
inactive: [1] -0.009 | [2] -0.006 | [5] 0.033 | [3] 0.023 | [4] -0.039

GPATCH2L (UniProt Q9NWQ4)
inactive: [3] -0.105

2 successive records already listed, quoted:
GNPTAB (UniProt Q3T906)
inactive: [1] -0.001 | [2] 0.17 | [3] 0.039 | [4] -0.055

GINM1 (UniProt Q9NU53)
inactive: [4] -0.497

Further entries follow:

GOLIM4 (UniProt F8W785)
inactive: [4] 0.08

GINS1 (UniProt Q14691)
inactive: [1] 0.035 | [2] -0.008 | [5] 0.034 | [3] 0.027 | [4] 0.034
